Measurements published in patent US20230374132A1.
Residue numbers refer to the chain shown, from its start. Results are given in words; binding and its absence hold for the method and conditions named. Some entries that bind do so weakly or less than the wild type.

By UniProt entry, the sequences of proteins in these tests, tags left out. Where a name states a change or a piece, a line headed by the entry shows the natural chain unless it says otherwise.
UniProt P07766: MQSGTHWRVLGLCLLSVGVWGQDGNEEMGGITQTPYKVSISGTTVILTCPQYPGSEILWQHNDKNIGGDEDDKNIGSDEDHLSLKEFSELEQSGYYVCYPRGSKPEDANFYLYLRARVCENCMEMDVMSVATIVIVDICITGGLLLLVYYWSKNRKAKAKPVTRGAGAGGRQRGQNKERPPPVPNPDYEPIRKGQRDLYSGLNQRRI
UniProt P04234: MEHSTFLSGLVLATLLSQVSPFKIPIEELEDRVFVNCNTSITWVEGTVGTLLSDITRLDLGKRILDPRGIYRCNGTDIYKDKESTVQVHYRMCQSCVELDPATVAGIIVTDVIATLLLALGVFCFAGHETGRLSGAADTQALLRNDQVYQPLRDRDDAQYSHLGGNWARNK
UniProt P09693: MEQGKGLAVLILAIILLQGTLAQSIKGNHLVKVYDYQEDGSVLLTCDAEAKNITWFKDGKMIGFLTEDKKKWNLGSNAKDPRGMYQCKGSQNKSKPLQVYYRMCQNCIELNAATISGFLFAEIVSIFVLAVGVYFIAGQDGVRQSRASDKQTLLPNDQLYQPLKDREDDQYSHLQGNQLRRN

B1: hzsp34.25 (antibody, human IgG1, lambda, L234A L235A, V domains shown)
VH: EVQLVESGGGLVQPGGSLKLSCAASGFTFNTYAMNWVRQASGKGLEWVARIRSKYNNYATYYADSVKDRFTISRDDSKSTLYLQMNSLKTEDTAVYYCARHGNFGQSYVSWFAYWGQGTTVTVSS
VL: QAVVTQEPSLTVSPGGTVTLTCRSSTGAVTTSNYANWVQQKPGQAPRGLIGGTNKRAPGVPARFSGSLLGDKAALTLLGAQPEDEAEYYCALWYSNLWVFGQGTKLTVLG
B2: hzsp34.24 (antibody, human IgG1, lambda, L234A L235A, V domains shown)
VH: B1 VH with A49G
VL: B1 VL
B3: hzsp34.39 (antibody, human IgG1, kappa, L234A L235A, V domains shown)
VH: B1 VH with A49G
VL: EIVMTQSPATLSVSPGERATLSCRSSTGAVTTSNYANWVQQKPGQAPRGLIGGTNKRAPGVPARFSGSGSGTEFTLTISSLQSEDFAVYYCALWYSNLWVFGQGTKLTVLR
B4: hzsp34.40 (antibody, human IgG1, kappa, L234A L235A, V domains shown)
VH: B1 VH
VL: B3 VL
B5: hzsp34.20 (antibody, human IgG1, lambda, L234A L235A, V domains shown)
VH: B1 VH
VL: B1 VL with D71G
B6: hzsp34.19 (antibody, human IgG1, lambda, L234A L235A, V domains shown)
VH: B1 VH with A49G
VL: B1 VL with D71G
B7: hzsp34.45 (antibody, human IgG1, kappa, L234A L235A, V domains shown)
VH: B1 VH
VL: B3 VL with T72D
B8: hzsp34.87 (antibody, human IgG1, lambda, L234A L235A, V domains shown)
VH: B1 VH with A49G, G102Y
VL: B1 VL
B9: hzsp34.89 (antibody, human IgG1, lambda, L234A L235A, V domains shown)
VH: B1 VH with A49G, F104A
VL: B1 VL
B10: hzsp34.115 (antibody, human IgG1, lambda, L234A L235A, V domains shown)
VH: B1 VH with A49G
VL: B1 VL with K55S
B11: hzsp34.80 (antibody, human IgG1, lambda, L234A L235A, V domains shown)
VH: B1 VH with Y32A, A49G
VL: B1 VL
B12: hzsp34.91 (antibody, human IgG1, lambda, L234A L235A, V domains shown)
VH: B1 VH with A49G, Q106G
VL: B1 VL
B13: hzsp34.97 (antibody, human IgG1, lambda, L234A L235A, V domains shown)
VH: B1 VH with A49G, Y55A, N56G, N57G
VL: B1 VL
B14: hzsp34.101 (antibody, human IgG1, lambda, L234A L235A, V domains shown)
VH: B1 VH with A49G, Y108A, V109A
VL: B1 VL
B15: hzsp34.116 (antibody, human IgG1, lambda, L234A L235A, V domains shown)
VH: B1 VH with A49G
VL: B1 VL with K55S, N96D
B16: hzsp34.81 (antibody, human IgG1, lambda, L234A L235A, V domains shown)
VH: B1 VH with A49G, R52S
VL: B1 VL
B17: hzsp34.82 (antibody, human IgG1, lambda, L234A L235A, V domains shown)
VH: B1 VH with A49G, S53L
VL: B1 VL
B18: hzsp34.107 (antibody, human IgG1, lambda, L234A L235A, V domains shown)
VH: B1 VH with A49G
VL: B1 VL with W93A
B19: hzsp34.88 (antibody, human IgG1, lambda, L234A L235A, V domains shown)
VH: B1 VH with A49G, N103G
VL: B1 VL
B20: hzsp34.44 (antibody, human IgG1, kappa, L234A L235A, V domains shown)
VH: B1 VH with A49G
VL: B3 VL with T72D

target: T1, human CD3 complex on Jurkat cells (human) (UniProt P07766+P04234+P09693); experiment: flow cytometry on Jurkat cells (human CD3 complex), PE anti-human Fc secondary antibody, Example 3.2

binding, binds:
B1, B2, B3, B4, B5, B6

target: T1, human CD3 complex on Jurkat cells (human); experiment: flow cytometry on Jurkat cells (human CD3 complex), 'Jurkat cell line binding', Example 3.2 [cont) D]

binding, binds:
B7, B2, B4

target: T1, human CD3 complex on Jurkat cells (human); experiment: flow cytometry on Jurkat cells (human CD3 complex), method of Example 3.2

binding, binds:
B8, B7, B2, B9, B10, B11, B12, B13, B14, B4, B15, B16, B17, B18, B19

target: T1, human CD3 complex on Jurkat cells (human); experiment: flow cytometry on Jurkat cells (human CD3 complex), PE anti-human Fc secondary antibody, Example 3.2 [cont) C]

binding, binds:
B7, B20

target: T1, human CD3 complex on Jurkat cells (human); experiment: flow cytometry on Jurkat cells (human CD3 complex), 'Jurkat cell line binding', method of Example 3.2

binding, binds:
B8, B13, B14, B15

target: T1, human CD3 complex on Jurkat cells (human); experiment: flow cytometry on Jurkat cells

binding, binds:
B1, B8, B7, B2, B9, B3, B11, B20, B12, B13, B14, B4, B5, B15, B16, B17, B18, B6, B19
